Data as given in PubChem BioAssay AID652243 (Drosophila RNAi Screening Center, 2013).
The deposit covers about 24,000 reagents; shown is a random part of those that have a named target and a result. Over the whole deposit, 246 (1%) were called active. 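Plates not normalised; calls are printed but the firefly/Renilla ratio behind them is not deposited; fold cut for lowering reported inconsistently.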 Raw values vary from plate to plate and are shown uncorrected. Reagents against one gene are numbered here. A plus sign joins genes that one reagent is predicted to hit. The record does not give: the amount of reagent.

Aim: 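Fly genes required for human androgen receptor driven transcription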 (primary screen)
Cell system: Drosophila S2R+ cells
Reagents: long dsRNA against Drosophila genes
Timing: 72 h (48 h, then 24 h hormone)
Challenge: synthetic androgen R1881 at 10 nM for 24 h
Measurement: 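Firefly light from an androgen-responsive reporter and Renilla control light per well, raw and unnormalised, for each of two replicates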
Direction: firefly reporter light: higher = more light from androgen-responsive reporter; Renilla control light: higher = more constitutive control signal (cell number, transfection)
Active means: 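Hit when the log firefly-to-Renilla ratio dropped or increased by a fixed fold versus the mean of GFP or LacZ controls across duplicate plates; lowering cut given as 1.5 and as 3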
Meaning of the calls: active = hit: reporter lowered or raised; inactive = no hit

| target | dsRNA no. | firefly reporter light, replicate 1 | firefly reporter light, replicate 2 | Renilla control light, replicate 1 | Renilla control light, replicate 2 | Call |
| --- | --- | --- | --- | --- | --- | --- |
| COX7C (Cytochrome c oxidase subunit 7C) | 1 | 2.93e5 | 3.31e5 | 2.51e6 | 2.55e6 | inactive |
| CG6695 | 1 | 87312 | 76399 | 6.09e5 | 6.18e5 | inactive |
| CG6695 | 2 | 1.36e6 | 1.41e6 | 1.40e6 | 1.40e6 | inactive |
| CG6845 | 1 | 6.48e5 | 7.51e5 | 1.43e6 | 1.36e6 | inactive |
| CG6845 | 2 | 6.07e5 | 4.26e5 | 7.71e5 | 8.22e5 | inactive |
| Cpr65Au (Cuticular protein 65Au) | 1 | 9.60e5 | 8.91e5 | 1.33e6 | 9.07e5 | inactive |
| BckdhB (Branched chain keto acid dehydrogenase E1 subunit beta) | 1 | 9.22e5 | 9.75e5 | 2.17e6 | 2.14e6 | inactive |
| CG14811 | 1 | 4.26e5 | 3.64e5 | 4.31e6 | 4.22e6 | inactive |
| CG43658 | 1 | 4.96e5 | 6.00e5 | 3.96e6 | 3.38e6 | inactive |
| CG43658 | 2 | 5.97e5 | 6.01e5 | 3.56e6 | 2.48e6 | inactive |
| CG43658 | 3 | 9.19e5 | 1.31e6 | 1.18e6 | 1.21e6 | inactive |
| CG43658 | 4 | 5.69e5 | 8.94e5 | 8.59e5 | 1.13e6 | inactive |
| hmw (hemingway) | 1 | 1.03e5 | 1.08e5 | 9.19e5 | 1.23e6 | inactive |
| CG31797 | 1 | 1.28e5 | 91976 | 8.58e5 | 6.05e5 | inactive |
| CG31797 | 2 | 1.73e5 | 1.63e5 | 1.92e6 | 1.93e6 | inactive |
| holn1 (hole-in-one) | 1 | 8.65e5 | 6.92e5 | 2.34e6 | 2.38e6 | inactive |
| holn1 (hole-in-one) | 2 | 6.44e5 | 9.10e5 | 2.81e5 | 3.97e5 | inactive |
| CG32806 | 1 | 8.91e5 | 8.73e5 | 2.66e6 | 2.35e6 | inactive |
| CG32806 | 2 | 3.53e5 | 5.16e5 | 8.32e5 | 1.44e6 | inactive |
| CG32806 | 3 | 7.81e5 | 3.81e5 | 1.65e6 | 1.11e6 | inactive |
| CG33262 | 1 | 7.10e5 | 1.09e6 | 1.63e6 | 2.17e6 | inactive |
| Tsp2A (Tetraspanin 2A) | 1 | 3.86e5 | 2.75e5 | 3.81e6 | 3.32e6 | inactive |
| CG14990 | 1 | 2.10e5 | 1.30e5 | 1.84e6 | 1.04e6 | inactive |
| Bdp1 (B double prime 1) | 1 | 8.10e5 | 1.30e6 | 1.79e6 | 1.79e6 | inactive |
| Bdp1 (B double prime 1) | 2 | 3.79e5 | 3.82e5 | 8.32e5 | 9.44e5 | inactive |
| CG5913 | 1 | 1.34e5 | 1.56e5 | 3.06e6 | 3.13e6 | inactive |
| NAAT1 (Nutrient Amino Acid Transporter 1) | 1 | 2.04e5 | 2.54e5 | 2.11e6 | 1.60e6 | inactive |
| NAAT1 (Nutrient Amino Acid Transporter 1) | 2 | 4.87e5 | 5.82e5 | 4.59e5 | 5.93e5 | inactive |
| CG3739 | 1 | 2.17e5 | 2.89e5 | 2.62e6 | 3.14e6 | inactive |
| CG32320 | 1 | 7.33e5 | 5.87e5 | 2.78e6 | 2.26e6 | inactive |
| CG32320 | 2 | 5.64e5 | 6.00e5 | 1.59e6 | 1.84e6 | inactive |
| PIG-G (Phosphatidylinositol glycan anchor biosynthesis class G) | 1 | 1.06e6 | 4.36e5 | 1.61e6 | 1.02e6 | inactive |

Continued (2 carried over from the part before).
| target | dsRNA no. | firefly reporter light, replicate 1 | firefly reporter light, replicate 2 | Renilla control light, replicate 1 | Renilla control light, replicate 2 | Call |
| --- | --- | --- | --- | --- | --- | --- |
| CG32320 | 2 | 5.64e5 | 6.00e5 | 1.59e6 | 1.84e6 | inactive |
| PIG-G (Phosphatidylinositol glycan anchor biosynthesis class G) | 1 | 1.06e6 | 4.36e5 | 1.61e6 | 1.02e6 | inactive |
| Larp7 (La related protein 7) | 1 | 1.13e5 | 97340 | 1.74e6 | 1.75e6 | inactive |
| Larp7 (La related protein 7) | 2 | 2.55e5 | 3.33e5 | 7.70e5 | 6.42e5 | inactive |
| RfC3 (Replication factor C subunit 3) | 1 | 2.01e5 | 1.75e5 | 1.24e6 | 1.23e6 | inactive |
| CG18094 | 1 | 99705 | 1.04e5 | 1.24e6 | 1.30e6 | inactive |
| CG14219 | 1 | 95842 | 80176 | 1.06e5 | 82349 | inactive |
| CG14219 | 2 | 2.88e5 | 2.37e5 | 7.25e5 | 7.35e5 | inactive |
| Ucp4A (Uncoupling protein 4A) | 1 | 4.19e5 | 6.59e5 | 1.03e6 | 2.00e6 | inactive |
| Ucp4A (Uncoupling protein 4A) | 2 | 5.36e5 | 4.22e5 | 8.09e5 | 6.44e5 | inactive |
| PIG-U (Phosphatidylinositol glycan anchor biosynthesis class U) | 1 | 5.02e5 | 7.76e5 | 1.21e6 | 1.35e6 | inactive |
| PIG-U (Phosphatidylinositol glycan anchor biosynthesis class U) | 2 | 2.50e5 | 2.67e5 | 9.75e5 | 8.31e5 | inactive |
| ABCB7 (ATP binding cassette subfamily B member 7) | 1 | 43746 | 62056 | 8.93e5 | 9.11e5 | inactive |
| stnB + stnA | 1 | 4.35e5 | 5.28e5 | 2.15e6 | 3.57e6 | inactive |
| stnB + stnA | 2 | 5.24e5 | 4.94e5 | 1.77e5 | 2.69e5 | inactive |
| stnB + stnA | 3 | 99387 | 1.30e5 | 2.46e5 | 2.62e5 | inactive |
| NANS (N-acetylneuraminic acid synthase) | 1 | 1.26e5 | 77291 | 2.37e6 | 1.47e6 | inactive |
| NANS (N-acetylneuraminic acid synthase) | 2 | 2.86e5 | 2.33e5 | 4.97e5 | 8.54e5 | inactive |
| Hecw (Hecw ubiquitin protein ligase) | 1 | 2.38e5 | 1.97e5 | 1.97e6 | 2.34e6 | inactive |
| Hecw (Hecw ubiquitin protein ligase) | 2 | 3.25e5 | 3.85e5 | 3.57e6 | 3.00e6 | inactive |
| Hecw (Hecw ubiquitin protein ligase) | 3 | 6.56e5 | 5.66e5 | 1.02e6 | 1.04e6 | inactive |
| CkIIbeta2 (Casein kinase II beta2 subunit) | 1 | 81271 | 90424 | 1.10e6 | 1.22e6 | inactive |
| CkIIbeta2 (Casein kinase II beta2 subunit) | 2 | – | – | – | – | inactive |
| CG30373 | 1 | 2.65e5 | 3.06e5 | 7.68e5 | 6.06e5 | inactive |
| CG30373 | 2 | 2.76e5 | 4.51e5 | 8.58e5 | 8.58e5 | inactive |
| Miro (Mitochondrial Rho) | 1 | 92314 | 57366 | 5.77e5 | 5.03e5 | inactive |
| Stt3B | 1 | 2.46e5 | 2.40e5 | 2.33e6 | 2.03e6 | inactive |
| elB (elbow B) | 1 | 5.91e5 | 2.99e5 | 6.89e5 | 4.44e5 | inactive |
| Rab26 | 1 | 1.36e5 | 84934 | 1.82e6 | 1.74e6 | inactive |
| Rab26 | 2 | 2.64e5 | 3.23e5 | 2.06e6 | 2.97e6 | inactive |
| Rab26 | 3 | 4.02e5 | 3.14e5 | 5.18e5 | 4.52e5 | inactive |
| Rab26 | 4 | 2.33e5 | 2.46e5 | 6.43e5 | 9.22e5 | inactive |
| CG14535 | 1 | 1.56e5 | 1.59e5 | 1.75e6 | 1.73e6 | inactive |
| Calx (Na/Ca-exchange protein) | 1 | 2.73e5 | 2.52e5 | 4.34e5 | 6.11e5 | inactive |
| Calx (Na/Ca-exchange protein) | 2 | 2.72e5 | 1.89e5 | 4.41e5 | 4.77e5 | inactive |
| Calx (Na/Ca-exchange protein) | 3 | 2.34e5 | 2.52e5 | 3.69e6 | 3.60e6 | inactive |
| Calx (Na/Ca-exchange protein) | 4 | 5.17e5 | 4.05e5 | 8.69e5 | 7.58e5 | inactive |
| Calx (Na/Ca-exchange protein) | 5 | 8.36e5 | 7.82e5 | 1.02e6 | 9.34e5 | inactive |
| Graf (GTPase regulator associated with FAK) | 1 | 1.28e5 | 1.20e5 | 6.70e5 | 6.79e5 | inactive |
| Orc6 (Origin recognition complex subunit 6) | 1 | 1.86e5 | 2.67e5 | 1.21e6 | 2.27e6 | inactive |
| CG17190 | 1 | 2.49e5 | 2.41e5 | 2.70e6 | 3.39e6 | inactive |
| eas (easily shocked) | 1 | 6.35e5 | 4.60e5 | 3.89e6 | 3.19e6 | inactive |
| eas (easily shocked) | 2 | 6.27e5 | 7.43e5 | 1.02e6 | 1.02e6 | inactive |
| eas (easily shocked) | 3 | – | – | – | – | inactive |
